Results from the supplement of paper PMC12067093, “Discovery and optimisation of a covalent ligand for TRIM25 and its application to targeted protein ubiquitination” (Chemical Science, 2025).
The other results are listed elsewhere or left out.

Chains of the proteins cited; added tags and fusions are not shown. Lines headed by an entry give the natural chain unless they say otherwise; changes in a name come on top.
UniProt Q70CQ2: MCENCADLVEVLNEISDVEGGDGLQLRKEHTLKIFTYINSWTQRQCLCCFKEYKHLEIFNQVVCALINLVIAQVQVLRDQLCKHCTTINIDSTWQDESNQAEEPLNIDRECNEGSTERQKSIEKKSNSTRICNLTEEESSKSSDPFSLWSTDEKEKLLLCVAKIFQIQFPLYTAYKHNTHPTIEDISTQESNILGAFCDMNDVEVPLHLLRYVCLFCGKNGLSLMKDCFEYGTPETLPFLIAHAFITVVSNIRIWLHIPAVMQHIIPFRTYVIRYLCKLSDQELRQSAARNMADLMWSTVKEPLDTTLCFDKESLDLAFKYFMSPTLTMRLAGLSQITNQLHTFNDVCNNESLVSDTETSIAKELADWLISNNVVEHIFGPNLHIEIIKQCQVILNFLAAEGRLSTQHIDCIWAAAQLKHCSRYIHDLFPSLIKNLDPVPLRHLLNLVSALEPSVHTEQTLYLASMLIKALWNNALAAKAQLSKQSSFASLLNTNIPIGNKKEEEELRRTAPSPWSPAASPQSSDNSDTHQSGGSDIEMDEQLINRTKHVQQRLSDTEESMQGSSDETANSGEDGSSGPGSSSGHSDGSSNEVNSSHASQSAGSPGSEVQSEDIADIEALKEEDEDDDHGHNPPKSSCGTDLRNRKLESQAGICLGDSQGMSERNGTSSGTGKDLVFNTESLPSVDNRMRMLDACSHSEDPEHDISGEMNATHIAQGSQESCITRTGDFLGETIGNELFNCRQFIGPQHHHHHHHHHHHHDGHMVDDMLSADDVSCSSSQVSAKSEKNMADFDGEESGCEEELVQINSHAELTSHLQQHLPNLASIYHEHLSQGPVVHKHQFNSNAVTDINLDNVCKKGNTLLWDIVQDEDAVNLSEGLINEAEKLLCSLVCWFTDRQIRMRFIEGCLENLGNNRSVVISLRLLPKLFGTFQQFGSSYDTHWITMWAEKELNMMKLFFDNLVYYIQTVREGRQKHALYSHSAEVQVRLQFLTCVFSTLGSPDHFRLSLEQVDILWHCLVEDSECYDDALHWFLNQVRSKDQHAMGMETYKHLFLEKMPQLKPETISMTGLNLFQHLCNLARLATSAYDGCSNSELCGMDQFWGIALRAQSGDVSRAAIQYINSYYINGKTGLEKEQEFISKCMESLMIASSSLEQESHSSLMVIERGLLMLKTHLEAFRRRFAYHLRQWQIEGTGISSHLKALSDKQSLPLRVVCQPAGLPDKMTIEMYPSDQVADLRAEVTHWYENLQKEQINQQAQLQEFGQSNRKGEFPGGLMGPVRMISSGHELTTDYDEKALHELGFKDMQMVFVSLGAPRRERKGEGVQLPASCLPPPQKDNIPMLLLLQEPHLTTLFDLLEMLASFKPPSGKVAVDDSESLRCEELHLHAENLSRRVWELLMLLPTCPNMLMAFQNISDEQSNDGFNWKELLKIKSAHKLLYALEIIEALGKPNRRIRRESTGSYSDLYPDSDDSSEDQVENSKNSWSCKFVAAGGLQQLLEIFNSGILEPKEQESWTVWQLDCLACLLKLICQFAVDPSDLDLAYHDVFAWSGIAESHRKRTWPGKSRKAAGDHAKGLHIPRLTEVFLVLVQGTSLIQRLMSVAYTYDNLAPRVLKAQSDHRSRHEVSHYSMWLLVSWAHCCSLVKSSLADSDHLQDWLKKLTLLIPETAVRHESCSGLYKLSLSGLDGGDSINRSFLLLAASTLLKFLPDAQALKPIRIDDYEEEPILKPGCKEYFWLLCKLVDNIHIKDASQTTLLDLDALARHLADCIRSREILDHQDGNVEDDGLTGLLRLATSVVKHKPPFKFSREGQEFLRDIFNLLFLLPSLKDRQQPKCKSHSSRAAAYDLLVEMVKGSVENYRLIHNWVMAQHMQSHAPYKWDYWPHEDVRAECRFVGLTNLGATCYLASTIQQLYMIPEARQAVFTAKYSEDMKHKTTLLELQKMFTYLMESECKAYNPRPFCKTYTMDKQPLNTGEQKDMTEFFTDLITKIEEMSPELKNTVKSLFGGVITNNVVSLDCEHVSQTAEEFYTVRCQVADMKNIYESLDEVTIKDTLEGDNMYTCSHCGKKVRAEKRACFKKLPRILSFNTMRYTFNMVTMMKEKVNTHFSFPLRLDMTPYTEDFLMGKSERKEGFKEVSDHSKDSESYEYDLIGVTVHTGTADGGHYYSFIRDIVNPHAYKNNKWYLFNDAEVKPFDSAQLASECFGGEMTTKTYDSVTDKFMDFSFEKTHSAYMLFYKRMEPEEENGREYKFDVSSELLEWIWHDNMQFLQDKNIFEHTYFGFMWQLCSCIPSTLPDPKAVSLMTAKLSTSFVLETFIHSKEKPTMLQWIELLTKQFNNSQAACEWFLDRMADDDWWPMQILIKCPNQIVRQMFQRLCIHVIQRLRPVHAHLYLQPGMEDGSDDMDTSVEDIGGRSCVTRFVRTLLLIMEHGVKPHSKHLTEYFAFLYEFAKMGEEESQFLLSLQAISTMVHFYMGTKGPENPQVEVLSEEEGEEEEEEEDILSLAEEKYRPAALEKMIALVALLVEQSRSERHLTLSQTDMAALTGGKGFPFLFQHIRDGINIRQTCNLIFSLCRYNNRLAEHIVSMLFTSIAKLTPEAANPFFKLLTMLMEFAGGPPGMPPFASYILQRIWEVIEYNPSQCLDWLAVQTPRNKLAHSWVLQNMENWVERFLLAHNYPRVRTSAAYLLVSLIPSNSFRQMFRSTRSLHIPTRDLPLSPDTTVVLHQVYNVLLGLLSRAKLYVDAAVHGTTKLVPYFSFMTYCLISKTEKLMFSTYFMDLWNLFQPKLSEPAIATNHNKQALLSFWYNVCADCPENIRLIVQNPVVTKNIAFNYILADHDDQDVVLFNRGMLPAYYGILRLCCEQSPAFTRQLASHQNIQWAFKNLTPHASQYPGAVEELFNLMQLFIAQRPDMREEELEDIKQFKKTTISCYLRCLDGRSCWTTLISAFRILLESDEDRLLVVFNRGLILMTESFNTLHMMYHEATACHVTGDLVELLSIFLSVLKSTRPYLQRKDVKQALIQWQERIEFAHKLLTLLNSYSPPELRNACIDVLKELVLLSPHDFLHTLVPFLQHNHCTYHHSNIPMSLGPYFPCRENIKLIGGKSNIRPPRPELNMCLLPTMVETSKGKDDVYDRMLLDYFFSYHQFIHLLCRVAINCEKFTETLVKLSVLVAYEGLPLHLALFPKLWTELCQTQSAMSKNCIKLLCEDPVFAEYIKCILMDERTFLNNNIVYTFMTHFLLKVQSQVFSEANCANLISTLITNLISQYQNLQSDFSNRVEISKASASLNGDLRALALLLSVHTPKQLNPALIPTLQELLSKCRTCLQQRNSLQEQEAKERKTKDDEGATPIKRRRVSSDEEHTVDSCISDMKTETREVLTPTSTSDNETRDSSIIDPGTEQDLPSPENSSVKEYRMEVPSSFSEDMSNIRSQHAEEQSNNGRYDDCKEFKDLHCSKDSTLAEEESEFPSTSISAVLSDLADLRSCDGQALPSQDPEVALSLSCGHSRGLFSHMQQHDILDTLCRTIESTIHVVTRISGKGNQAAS
UniProt Q96RL1: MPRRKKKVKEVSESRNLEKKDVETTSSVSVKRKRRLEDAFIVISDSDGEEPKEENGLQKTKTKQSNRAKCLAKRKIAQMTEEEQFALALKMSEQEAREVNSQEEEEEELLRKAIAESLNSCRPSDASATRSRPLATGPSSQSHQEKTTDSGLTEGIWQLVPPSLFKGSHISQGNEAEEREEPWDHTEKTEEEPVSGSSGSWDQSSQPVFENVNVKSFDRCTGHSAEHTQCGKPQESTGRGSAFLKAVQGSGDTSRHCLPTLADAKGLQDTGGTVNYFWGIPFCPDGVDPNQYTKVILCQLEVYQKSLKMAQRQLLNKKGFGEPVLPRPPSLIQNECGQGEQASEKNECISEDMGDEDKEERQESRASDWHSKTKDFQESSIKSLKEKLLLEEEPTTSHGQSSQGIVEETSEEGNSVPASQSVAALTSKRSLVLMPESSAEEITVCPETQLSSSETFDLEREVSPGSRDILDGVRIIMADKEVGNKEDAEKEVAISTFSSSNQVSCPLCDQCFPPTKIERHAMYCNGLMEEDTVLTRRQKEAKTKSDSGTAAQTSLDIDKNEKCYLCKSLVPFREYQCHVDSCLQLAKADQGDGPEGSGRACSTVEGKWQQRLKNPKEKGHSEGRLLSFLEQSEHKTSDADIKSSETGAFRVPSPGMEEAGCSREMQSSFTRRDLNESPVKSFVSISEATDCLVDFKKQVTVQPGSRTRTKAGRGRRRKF
UniProt Q9HAU5: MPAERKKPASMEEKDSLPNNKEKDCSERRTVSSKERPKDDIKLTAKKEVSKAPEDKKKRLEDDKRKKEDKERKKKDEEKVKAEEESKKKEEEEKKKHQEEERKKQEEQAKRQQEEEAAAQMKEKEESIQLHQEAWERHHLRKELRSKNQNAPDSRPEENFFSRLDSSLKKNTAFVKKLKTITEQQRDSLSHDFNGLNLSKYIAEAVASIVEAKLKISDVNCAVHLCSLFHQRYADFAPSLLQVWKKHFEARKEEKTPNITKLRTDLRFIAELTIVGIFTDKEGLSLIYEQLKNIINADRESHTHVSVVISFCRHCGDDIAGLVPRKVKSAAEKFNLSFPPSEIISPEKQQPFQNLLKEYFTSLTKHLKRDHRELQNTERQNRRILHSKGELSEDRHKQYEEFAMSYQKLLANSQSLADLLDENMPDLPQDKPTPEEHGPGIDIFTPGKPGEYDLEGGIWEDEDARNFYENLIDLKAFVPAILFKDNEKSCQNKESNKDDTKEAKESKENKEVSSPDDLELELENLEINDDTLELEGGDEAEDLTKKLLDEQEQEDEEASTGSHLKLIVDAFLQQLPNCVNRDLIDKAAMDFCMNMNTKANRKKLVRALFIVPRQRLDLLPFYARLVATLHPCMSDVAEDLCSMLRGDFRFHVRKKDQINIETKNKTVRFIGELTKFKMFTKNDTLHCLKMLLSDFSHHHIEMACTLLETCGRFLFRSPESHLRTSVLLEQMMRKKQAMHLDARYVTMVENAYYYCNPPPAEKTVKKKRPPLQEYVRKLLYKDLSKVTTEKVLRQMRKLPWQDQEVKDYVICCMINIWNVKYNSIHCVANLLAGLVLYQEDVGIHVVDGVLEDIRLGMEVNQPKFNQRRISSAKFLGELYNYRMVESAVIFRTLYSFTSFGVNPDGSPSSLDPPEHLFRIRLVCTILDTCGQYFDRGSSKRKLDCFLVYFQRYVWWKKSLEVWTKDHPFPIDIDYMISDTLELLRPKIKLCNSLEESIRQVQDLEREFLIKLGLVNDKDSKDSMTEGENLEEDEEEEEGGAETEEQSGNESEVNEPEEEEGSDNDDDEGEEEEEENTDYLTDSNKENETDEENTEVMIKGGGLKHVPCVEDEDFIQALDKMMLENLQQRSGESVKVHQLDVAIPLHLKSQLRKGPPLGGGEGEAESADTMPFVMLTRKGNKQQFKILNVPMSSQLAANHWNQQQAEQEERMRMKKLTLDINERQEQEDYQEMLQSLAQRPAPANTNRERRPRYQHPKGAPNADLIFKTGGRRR
UniProt O60701: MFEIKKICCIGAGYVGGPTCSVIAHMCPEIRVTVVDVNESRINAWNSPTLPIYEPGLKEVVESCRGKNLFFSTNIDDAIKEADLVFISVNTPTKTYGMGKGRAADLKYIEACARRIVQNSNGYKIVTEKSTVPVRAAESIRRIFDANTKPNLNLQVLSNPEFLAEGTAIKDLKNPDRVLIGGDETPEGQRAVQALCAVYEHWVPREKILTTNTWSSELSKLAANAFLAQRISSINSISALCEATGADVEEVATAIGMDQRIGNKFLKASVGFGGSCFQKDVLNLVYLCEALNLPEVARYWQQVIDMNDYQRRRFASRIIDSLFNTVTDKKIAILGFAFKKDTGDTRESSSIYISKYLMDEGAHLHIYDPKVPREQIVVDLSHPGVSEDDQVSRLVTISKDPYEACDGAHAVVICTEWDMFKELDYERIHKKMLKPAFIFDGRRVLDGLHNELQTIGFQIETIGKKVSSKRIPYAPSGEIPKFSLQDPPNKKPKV
UniProt P54578: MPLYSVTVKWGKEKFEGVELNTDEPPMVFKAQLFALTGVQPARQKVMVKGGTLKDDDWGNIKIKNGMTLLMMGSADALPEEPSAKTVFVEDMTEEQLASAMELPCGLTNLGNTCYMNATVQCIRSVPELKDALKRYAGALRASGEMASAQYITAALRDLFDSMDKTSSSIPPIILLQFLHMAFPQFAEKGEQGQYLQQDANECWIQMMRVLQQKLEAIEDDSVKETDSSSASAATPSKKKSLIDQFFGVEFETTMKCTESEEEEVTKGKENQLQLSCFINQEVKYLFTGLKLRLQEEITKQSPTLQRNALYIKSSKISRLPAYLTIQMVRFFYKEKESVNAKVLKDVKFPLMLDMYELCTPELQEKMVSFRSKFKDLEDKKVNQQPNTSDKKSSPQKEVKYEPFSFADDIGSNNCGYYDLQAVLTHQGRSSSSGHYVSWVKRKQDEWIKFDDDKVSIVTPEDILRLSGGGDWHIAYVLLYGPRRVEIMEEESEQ

Compound: CC1Cc2ccccc2N1C(=O)C1CCCN(C1)C(=O)CCl (mixture of isomers) [TRIM25 ligand 11 (diastereomer mixture)]
Test: probe-labelled cysteine peptide fold change vs DMSO (competition) (log2 fold change); higher = less target engagement (more negative = stronger competition)
Details: THP-1, incubation time: 4 h
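Also: competitive chemoproteomic profiling in live THP-1 cells with an iodoacetamide desthiobiotin (IA-DTB) probe, comparing probe-labelled peptide intensities in compound-treated cells against DMSO-treated controls.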

Row | Target | probe-labelled cysteine peptide fold change (10 µM) | probe-labelled cysteine peptide fold change (50 µM)
1 | USP15_Q9Y4E8_570_DDIYVFEININRTEDTEHVIIPVCLR (UniProt Q9Y4E8) | 0.305 | 0.113
2 | UGGT1_Q9NYU2_159_KTCESDTLEALLLTASERPK (UniProt Q9NYU2) | 0.0177 | -0.00925
3 | UHRF1_Q96T88_497_RTAEQSCDQK (UniProt Q96T88) | -0.0136 | -0.0331
4 | USP34_Q70CQ2_1380_CEELHLHAENLSR (UniProt Q70CQ2) | 0.0994 | -0.0197
5 | USP16_Q9Y5T5_726_HIKFPEILDLAPFCTLK (UniProt Q9Y5T5) | -0.317 | -0.472
6 | USP11_P51784_894_DGHYTTFACNK (UniProt P51784) | 0.00141 | -0.34
7 | USP48_Q86UV5_290_LLSLPCTLNLQLMR (UniProt Q86UV5) | -0.0857 | -0.28
8 | USP19_O94966_1169_EEQLPSYDLYAVINHYGGMIGGHYTACAR (UniProt O94966) | 0.0466 | 0.12
9 | UBR5_O95071_2546_ILGLCLLQNELCPITLNR (UniProt O95071) | -0.134 | -0.216
10 | UCHL5_Q9Y5K5_88+100_QVINNACATQAIVSVLLNCTHQDVHLGETLSEFK (UniProt Q9Y5K5) | 0.191 | 0.164
11 | UPF1_Q92900_675+683_QLILVGDHCQLGPVVMCK (UniProt Q92900) | -0.154 | -0.207
12 | USP19_O94966_152_VGVGPLQLEDVDAAFTDTDCVVR (UniProt O94966) | -0.0997 | 0.435
13 | UNC13D_Q70J99_276_GQCHLQFQLIHK (UniProt Q70J99) | 0.125 | 0.135
14 | USP24_Q9UPU5_995_QLCSPVDNIQIFTNDSLLTVNK (UniProt Q9UPU5) | 0.0995 | 0.468
15 | UNC45A_Q9H3U1_384_CDAERENFHR (UniProt Q9H3U1) | -0.108 | -0.102
16 | UFL1_O94874_649_SIEDFISCLDSAAEACDIMVK (UniProt O94874) | 0.0306 | 0.22
17 | UEVLD_Q8IX04_5_MEFDCEGLR (UniProt Q8IX04) | 0.174 | 0.163
18 | UHRF1BP1L_A0JNW5_398_NGWANELLHEFECNVEMLK (UniProt A0JNW5) | -0.029 | -0.102
19 | UBR7_Q8N806_137_YNDNFFGLYCICK (UniProt Q8N806) | 0.134 | -0.0455
20 | USP15_Q9Y4E8_791_DCIELFTTK (UniProt Q9Y4E8) | -0.0634 | -0.0844
21 | UNK_Q9C0B0_100_YDEATGLCPEGDECPFLHR (UniProt Q9C0B0) | 0.613 | 0.284

Row | Target | probe-labelled cysteine peptide fold change (10 µM) | probe-labelled cysteine peptide fold change (50 µM)
22 | USP37_Q86T82_538_AEELEYSCEK (UniProt Q86T82) | 0.188 | 0.339
23 | UQCC2_Q9BRT2_53_EGENTQVAEPEACDQMYESLAR (UniProt Q9BRT2) | 0.0837 | 0.297
24 | USP6_P35125_1237_ENGAGQICELADALSR (UniProt P35125) | -0.192 | -0.199
25 | UBXN7_O94888_38_HMLEACNNNLEMAVTMFLDGGGIAEEPSTSSASVSTVRPHTEEEVR (UniProt O94888) | -0.0794 | 0.0135
26 | USP4_Q13107_500_DRVMEVFLVPADPHCRPTQYR (UniProt Q13107) | 0.0788 | 0.0752
27 | USP15_Q9Y4E8_139_LCENGNMNNVVTR (UniProt Q9Y4E8) | 0.0928 | 0.0899
28 | UHRF1BP1_Q6BDS2_336_LDLHICDDSQSREPGVSANR (UniProt Q6BDS2) | 0.232 | 0.221
29 | UROS_P10746_73_AVEAAELCLEQNNK (UniProt P10746) | 0.0799 | 0.073
30 | UROS_P10746_265_ALQPHGCC (UniProt P10746) | 0.0492 | -0.0435
31 | UNC13D_Q70J99_276_TETYPDRGQCHLQFQLIHK (UniProt Q70J99) | 3.21e-05 | 0.0391
32 | UBR7_Q8N806_424_VDGMQYYCS (UniProt Q8N806) | -0.00352 | -0.294
33 | USP6_P35125_981_IDCGEDR (UniProt P35125) | 0.126 | -0.00629
34 | UGGT1_Q9NYU2_1024_VFMNCQSK (UniProt Q9NYU2) | 0.0145 | 0.15
35 | UIMC1_Q96RL1_691_SFVSISEATDCLVDFKK (UniProt Q96RL1) | -0.0909 | -0.341
36 | UPF1_Q92900_657_SILIDESTQATEPECMVPVVLGAK (UniProt Q92900) | 0.0986 | -0.135
37 | USP48_Q86UV5_145_DYEPQTICEHLQYLFALLQNSNRR (UniProt Q86UV5) | 0.102 | -0.124
38 | USP4_Q13107_464_STLVCPECAK (UniProt Q13107) | 0.00998 | -0.0406
39 | USP24_Q9UPU5_1628_CSTANSR (UniProt Q9UPU5) | -0.0433 | -0.0624
40 | UBR7_Q8N806_182_HLGAIPPESGDFQEMVCQACMK (UniProt Q8N806) | -0.00955 | -0.153
41 | USP19_O94966_659_LVCPVCAK (UniProt O94966) | -0.0373 | 0.0927
42 | UPF2_Q9HAU5_226_ISDVNCAVHLCSLFHQR (UniProt Q9HAU5) | 0.32 | -0.121

Row | Target | probe-labelled cysteine peptide fold change (10 µM) | probe-labelled cysteine peptide fold change (50 µM)
43 | UGDH_O60701_276_ASVGFGGSCFQK (UniProt O60701) | -0.0028 | 0.09
44 | UBXN4_Q92575_186_SDTATGGESAGHATSSQEPSGCSDQRPAEDLNIR (UniProt Q92575) | 0.255 | -0.267
45 | UFSP2_Q9NUQ7_302_IDDNGWGCAYR (UniProt Q9NUQ7) | 0.356 | 0.247
46 | UGDH_O60701_20+27_ICCIGAGYVGGPTCSVIAHMCPEIR (UniProt O60701) | 0.000235 | -0.197
47 | UQCRH_P07919_53_LELCDER (UniProt P07919) | -0.254 | -0.183
48 | USP48_Q86UV5_514_WLDESTPTKPIDNHACLCSHDK (UniProt Q86UV5) | -0.142 | -0.184
49 | UBTF_P17480_68_DFSGDMCK (UniProt P17480) | 0.00494 | 0.0183
50 | UHRF1BP1_Q6BDS2_494_KPSTLLSCSR (UniProt Q6BDS2) | 0.138 | 0.0965
51 | USP20_Q9Y2K6_393_SSSRPCSPVHHHEGHAK (UniProt Q9Y2K6) | 0.149 | -0.242
52 | UHRF1_Q96T88_98_ERDSELSDTDSGCCLGQSESDK (UniProt Q96T88) | -0.062 | -0.0154
53 | USP7_Q93009_223_NQGATCYMNSLLQTLFFTNQLR (UniProt Q93009) | -0.204 | -0.0819
54 | USP34_Q70CQ2_3118_SNIRPPRPELNMCLLPTMVETSK (UniProt Q70CQ2) | -0.0166 | 0.0385
55 | UMPS_P11172_278_ELLQLADALGPSICMLK (UniProt P11172) | 0.255 | 0.07
56 | UBR5_O95071_2267_CATTPMAVHR (UniProt O95071) | -0.0202 | -0.174
57 | UPF2_Q9HAU5_990_LCNSLEESIR (UniProt Q9HAU5) | -0.116 | 0.04
58 | UBR7_Q8N806_155_RPYPDPEDEIPDEMIQCVVCEDWFHGR (UniProt Q8N806) | 0.0185 | -0.0524
59 | USP14_P54578_257_CTESEEEEVTK (UniProt P54578) | -0.0407 | -0.184
60 | USP25_Q9UHP3_336_DLHECLEAAMIEGEIESLHSENSGK (UniProt Q9UHP3) | -0.0467 | 0.0315
61 | UBR5_O95071_572_VGVLMESVWNMNDSCR (UniProt O95071) | -0.102 | -0.192
62 | UHRF1_Q96T88_318+321_VCACHLCGGR (UniProt Q96T88) | -0.0653 | 0.0372
63 | UGDH_O60701_8+9+20_KICCIGAGYVGGPTCSVIAHMCPEIR (UniProt O60701) | -0.138 | 0.304

Row | Target | probe-labelled cysteine peptide fold change (10 µM) | probe-labelled cysteine peptide fold change (50 µM)
64 | USP5_P45974_219_ENLWLNLTDGSILCGR (UniProt P45974) | 0.0437 | -0.0206
65 | USP15_Q9Y4E8_570_TEDTEHVIIPVCLR (UniProt Q9Y4E8) | 0.0645 | 0.269
66 | UPF2_Q9HAU5_632+641_LVATLHPCMSDVAEDLCSMLR (UniProt Q9HAU5) | 0.24 | 0.226
67 | UHRF1_Q96T88_727+739_VEETFQCICCQELVFRPITTVCQHNVCK (UniProt Q96T88) | 0.136 | -0.00123
68 | USP11_P51784_468+471_STLVCPDCGNVSVTFDPFCYLSVPLPISHKR (UniProt P51784) | -0.0479 | -0.218
69 | USP48_Q86UV5_512+514_WLDESTPTKPIDNHACLCSHDK (UniProt Q86UV5) | 0.207 | -0.0629
70 | UPF3A_Q9H1J1_315_QESCAPGAVVK (UniProt Q9H1J1) | 0.021 | 0.118
71 | UHRF2_Q96PU4_347_CHSCSCR (UniProt Q96PU4) | 0.0469 | 0.235
72 | UHRF1BP1_Q6BDS2_384_HCEAMETR (UniProt Q6BDS2) | -0.0654 | -0.0129
73 | URB1_O60287_78_ISVECVEIFQLLSGEK (UniProt O60287) | 0.353 | 0.349
74 | USP14_P54578_277_ENQLQLSCFINQEVK (UniProt P54578) | -0.0118 | -0.0219
75 | USP10_Q14694_456_VQRPCTSTPMIDSFVR (UniProt Q14694) | 0.067 | 0.119
76 | USP5_P45974_838_VCASEKPPK (UniProt P45974) | 0.0128 | -0.0647
77 | USP19_O94966_656+659_LVCPVCAK (UniProt O94966) | 0.00149 | 0.0811
78 | UQCRC1_P31930_380_LCTSATESEVAR (UniProt P31930) | 0.124 | 0.109
79 | UPF1_Q92900_237_CFLSWLVK (UniProt Q92900) | -0.144 | -0.0648
80 | USP3_Q9Y6I4_49_SPWVCLTCSSVHCGR (UniProt Q9Y6I4) | -0.017 | -0.101
81 | USP38_Q8NB14_834_LKPSGTDEASCTK (UniProt Q8NB14) | 0.0943 | -0.0839
82 | UHRF1_Q96T88_316_VCACHLCGGR (UniProt Q96T88) | -0.0741 | 0.0398
83 | UIMC1_Q96RL1_298_VILCQLEVYQK (UniProt Q96RL1) | -0.000599 | 0.0891
